# According to US6517812B1, “Inhibition of psychostimulant-induced and nicotine-induced craving” (The General Hospital Corporation, priority 1997, dated 2003):
# At least one compound was matched to its structure with a doubt left.
# Experiments:
# rat frontal cortex [1] = test: BOLD fMRI in drug-naive rat after IV cocaine; assay type: in vivo; conditions: cocaine 0.5 mg/kg (p<0.02) and 1.0 mg/kg (p<0.05)
# Description: All procedures were carried out in accordance with NIH guidelines. Male Harlan Sprague-Dawley rats (225-300 gm) were anesthetized briefly with 1.5% halothane in oxygen for insertion of left femoral arterial and venous cannulae and placement of tracheostomy for mechanical ventilation (using a 16 gauge intravenous catheter, Inste-W, Becton Dickinson, Sandy, Utah). All wounds were infiltrated with 1% lidocaine before incision. Following surgery, the inspired halothane concentration was reduced to 0.7% and rats were paralyzed with 2 mg/kg intravenous pancuronium, followed by a continuous intravenous infusion of pancuronium at 2 mg/kg/hr. Pancuronium was dissolved in normal saline administered at 5 ml/kg/hr. Rats were mechanically ventilated (in a small animal volume controlled ventilator, Harvard Apparatus, Inc., South Natick, Mass.) with a 80/20 air/oxygen mixture, an inspiratory to expiratory ratio of 1:1, and an initial tidal volume of 3.0 ml at a rate of 40 breaths per minute. […] Arterial blood samples (150 μl) withdrawn from cannula were analyzed for arterial partial pressures of oxygen, carbon dioxide, and pH (Ciba-Coming Model 1304) before administration of drugs, and at the end of each experiment before sacrifice, to ensure animal stability. Arterial blood pressure and rectal temperature were monitored throughout the experiment. […]
# rat frontal cortex [2] = test: Laser Doppler-flowmetry (LDF) of regional cortical blood flow (CBF) in rat; assay type: in vivo; conditions: for CBF response (LDF): rat frontal cortex
# Description: All procedures were carried out in accordance with NIH guidelines. Male Harlan Sprague-Dawley rats (225-300 gm) were anesthetized briefly with 1.5% halothane in oxygen for insertion of left femoral arterial and venous cannulae and placement of tracheostomy for mechanical ventilation (using a 16 gauge intravenous catheter, Inste-W, Becton Dickinson, Sandy, Utah). All wounds were infiltrated with 1% lidocaine before incision. Following surgery, the inspired halothane concentration was reduced to 0.7% and rats were paralyzed with 2 mg/kg intravenous pancuronium, followed by a continuous intravenous infusion of pancuronium at 2 mg/kg/hr. Pancuronium was dissolved in normal saline administered at 5 ml/kg/hr. Rats were mechanically ventilated (in a small animal volume controlled ventilator, Harvard Apparatus, Inc., South Natick, Mass.) with a 80/20 air/oxygen mixture, an inspiratory to expiratory ratio of 1:1, and an initial tidal volume of 3.0 ml at a rate of 40 breaths per minute. Ventilation parameters were adjusted to maintain normal arterial blood gases (pH=7.40±0.01, PaCO2=40±2, PaO2=145±10). Arterial blood samples (150 μl) withdrawn from cannula were analyzed for arterial partial pressures of oxygen, carbon dioxide, and pH (Ciba-Coming Model 1304) before administration of drugs, and at the end of each experiment before sacrifice, to ensure animal stability. Arterial blood pressure and rectal temperature were monitored throughout the experiment. […] Rats torsos were wrapped in two heating blankets (Gaymar, Orchid Park, N.Y.) circulating warm water to maintain core temperature at 37-38° C. […]
# Regional cortical blood flow was determined by LDF (Perimed, PF2B, Stockholm, Sweden) as described previously (Ayata, et al., 1996, J. Cereb. Blood Flow Metab., 16:539-541). […] All data were collected, stored, and analyzed using MacLab/8 data acquisition and analysis system (ADInstruments, Mountain View, Calif.). Arterial pressure was continuously monitored and the data stored; heart rate was calculated from arterial pressure pulses by the data acquisition software. […]
structure (smiles),measurement,setting,value
COC(=O)[C@H]1[C@@H](OC(=O)c2ccccc2)C[C@@H]2CC[C@H]1N2C [cocaine],change in BOLD signal,rat frontal cortex [1],significant change
same,CBF response (LDF),"rat frontal cortex [2]; cocaine 0.5, 1.0 and 5 mg/kg (p<0.02)",increased significantly
same,CBF response (LDF),rat frontal cortex [2]; cocaine below 0.1 mg/kg,little or no change
same,change in CBF in the occipital pole (LDF),"rat frontal cortex [2]; rat, even after 5 mg/kg cocaine",No significant change
